Source: PubChem BioAssay AID1508597 (Cure First, 2020)

Assay: 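Knock-downs altering ovarian cancer cell survival with or without PARP inhibitor rucaparib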 (primary screen)
System: human ovarian carcinoma lines grown from tumours: OCI-P5x (papillary serous) and OCI-C5x (clear cell)
Reagents: siRNA pool against human genes, 1.25 pmol siRNA per well
Time to read-out: 72 h or 96 h, depending on the cell culture
Treatment: rucaparib 20 µM (about IC30) or vehicle, present until read-out
Read-out: 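Luminescent ATP-based viability assay read 72 or 96 h after transfection, depending on culture, given as normalised percent viability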
Direction: viability, normalised: higher = more viable cells remaining
Hit rule: 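Active when normalised viability falls below 80 percent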
Meaning of the calls: active = viability under 80%; inactive = viability 80% or more
The whole screen tested about 2,100 reagents; below is a random part of them. 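Calls flag viability under 80% in either arm, not effects specific to rucaparib; the reference for percent is not stated.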 Entries without a mark were called inactive. Some reagents were tested in more than one well and are listed for each. Not stated in the record: the 100% reference.

| gene | rucaparib or vehicle | cell line | technical replicate | viability, normalised (%) |
| --- | --- | --- | --- | --- |
| ONECUT1 (GeneID 3175) | Rucaparib | OCI-C5x (clear cell) | 1 | 38.2 (active) |
| ONECUT1 (GeneID 3175) | Rucaparib | OCI-C5x (clear cell) | 2 | 41.5 (active) |
| ONECUT1 (GeneID 3175) | Rucaparib | OCI-C5x (clear cell) | 3 | 40.1 (active) |
| ONECUT1 (GeneID 3175) | Rucaparib | OCI-P5x (serous) | 1 | 38.9 (active) |
| ONECUT1 (GeneID 3175) | Rucaparib | OCI-P5x (serous) | 2 | 50.7 (active) |
| ONECUT1 (GeneID 3175) | Rucaparib | OCI-P5x (serous) | 3 | 40.3 (active) |
| ONECUT1 (GeneID 3175) | Vehicle | OCI-C5x (clear cell) | 1 | 30.1 (active) |
| ONECUT1 (GeneID 3175) | Vehicle | OCI-C5x (clear cell) | 2 | 38.1 (active) |
| ONECUT1 (GeneID 3175) | Vehicle | OCI-C5x (clear cell) | 3 | 54.3 (active) |
| ONECUT1 (GeneID 3175) | Vehicle | OCI-P5x (serous) | 1 | 52.9 (active) |
| ONECUT1 (GeneID 3175) | Vehicle | OCI-P5x (serous) | 2 | 53.5 (active) |
| ONECUT1 (GeneID 3175) | Vehicle | OCI-P5x (serous) | 3 | 75 (active) |
| CSNK1G2 (GeneID 1455) | Rucaparib | OCI-C5x (clear cell) | 1 | 69.3 (active) |
| CSNK1G2 (GeneID 1455) | Rucaparib | OCI-C5x (clear cell) | 2 | 67.1 (active) |
| CSNK1G2 (GeneID 1455) | Rucaparib | OCI-C5x (clear cell) | 3 | 77.8 (active) |
| CSNK1G2 (GeneID 1455) | Rucaparib | OCI-P5x (serous) | 1 | 91.2 |
| CSNK1G2 (GeneID 1455) | Rucaparib | OCI-P5x (serous) | 2 | 93.8 |
| CSNK1G2 (GeneID 1455) | Rucaparib | OCI-P5x (serous) | 3 | 90.9 |
| CSNK1G2 (GeneID 1455) | Vehicle | OCI-C5x (clear cell) | 1 | 115 |
| CSNK1G2 (GeneID 1455) | Vehicle | OCI-C5x (clear cell) | 2 | 61.4 (active) |
| CSNK1G2 (GeneID 1455) | Vehicle | OCI-C5x (clear cell) | 3 | 73.2 (active) |
| CSNK1G2 (GeneID 1455) | Vehicle | OCI-P5x (serous) | 1 | 69.3 (active) |
| CSNK1G2 (GeneID 1455) | Vehicle | OCI-P5x (serous) | 2 | 82.5 |
| CSNK1G2 (GeneID 1455) | Vehicle | OCI-P5x (serous) | 3 | 56.1 (active) |
| ACHE (GeneID 43) | Rucaparib | OCI-C5x (clear cell) | 1 | 55.2 (active) |
| ACHE (GeneID 43) | Rucaparib | OCI-C5x (clear cell) | 2 | 55.6 (active) |
| ACHE (GeneID 43) | Rucaparib | OCI-C5x (clear cell) | 3 | 44 (active) |
| ACHE (GeneID 43) | Rucaparib | OCI-P5x (serous) | 1 | 65.4 (active) |
| ACHE (GeneID 43) | Rucaparib | OCI-P5x (serous) | 2 | 51.9 (active) |
| ACHE (GeneID 43) | Rucaparib | OCI-P5x (serous) | 3 | 56.9 (active) |
| ACHE (GeneID 43) | Vehicle | OCI-C5x (clear cell) | 1 | 39.5 (active) |
| ACHE (GeneID 43) | Vehicle | OCI-C5x (clear cell) | 2 | 35.3 (active) |
| ACHE (GeneID 43) | Vehicle | OCI-C5x (clear cell) | 3 | 50 (active) |
| ACHE (GeneID 43) | Vehicle | OCI-P5x (serous) | 1 | 53.8 (active) |
| ACHE (GeneID 43) | Vehicle | OCI-P5x (serous) | 2 | 50.7 (active) |
| ACHE (GeneID 43) | Vehicle | OCI-P5x (serous) | 3 | 42.4 (active) |

Next part (10 carried over from the part before).
| gene | rucaparib or vehicle | cell line | technical replicate | viability, normalised (%) |
| --- | --- | --- | --- | --- |
| ACHE (GeneID 43) | Rucaparib | OCI-C5x (clear cell) | 3 | 44 (active) |
| ACHE (GeneID 43) | Rucaparib | OCI-P5x (serous) | 1 | 65.4 (active) |
| ACHE (GeneID 43) | Rucaparib | OCI-P5x (serous) | 2 | 51.9 (active) |
| ACHE (GeneID 43) | Rucaparib | OCI-P5x (serous) | 3 | 56.9 (active) |
| ACHE (GeneID 43) | Vehicle | OCI-C5x (clear cell) | 1 | 39.5 (active) |
| ACHE (GeneID 43) | Vehicle | OCI-C5x (clear cell) | 2 | 35.3 (active) |
| ACHE (GeneID 43) | Vehicle | OCI-C5x (clear cell) | 3 | 50 (active) |
| ACHE (GeneID 43) | Vehicle | OCI-P5x (serous) | 1 | 53.8 (active) |
| ACHE (GeneID 43) | Vehicle | OCI-P5x (serous) | 2 | 50.7 (active) |
| ACHE (GeneID 43) | Vehicle | OCI-P5x (serous) | 3 | 42.4 (active) |
| SETDB1 (GeneID 9869) | Rucaparib | OCI-C5x (clear cell) | 1 | 44.8 (active) |
| SETDB1 (GeneID 9869) | Rucaparib | OCI-C5x (clear cell) | 2 | 36.8 (active) |
| SETDB1 (GeneID 9869) | Rucaparib | OCI-C5x (clear cell) | 3 | 39 (active) |
| SETDB1 (GeneID 9869) | Rucaparib | OCI-P5x (serous) | 1 | 39.7 (active) |
| SETDB1 (GeneID 9869) | Rucaparib | OCI-P5x (serous) | 2 | 51.5 (active) |
| SETDB1 (GeneID 9869) | Rucaparib | OCI-P5x (serous) | 3 | 53.9 (active) |
| SETDB1 (GeneID 9869) | Vehicle | OCI-C5x (clear cell) | 1 | 43.1 (active) |
| SETDB1 (GeneID 9869) | Vehicle | OCI-C5x (clear cell) | 2 | 47.3 (active) |
| SETDB1 (GeneID 9869) | Vehicle | OCI-C5x (clear cell) | 3 | 43.5 (active) |
| SETDB1 (GeneID 9869) | Vehicle | OCI-P5x (serous) | 1 | 58.9 (active) |
| SETDB1 (GeneID 9869) | Vehicle | OCI-P5x (serous) | 2 | 67 (active) |
| SETDB1 (GeneID 9869) | Vehicle | OCI-P5x (serous) | 3 | 89.7 |
| CRADD (GeneID 8738) | Rucaparib | OCI-C5x (clear cell) | 1 | 61.3 (active) |
| CRADD (GeneID 8738) | Rucaparib | OCI-C5x (clear cell) | 2 | 74.5 (active) |
| CRADD (GeneID 8738) | Rucaparib | OCI-C5x (clear cell) | 3 | 63.2 (active) |
| CRADD (GeneID 8738) | Rucaparib | OCI-P5x (serous) | 1 | 72.6 (active) |
| CRADD (GeneID 8738) | Rucaparib | OCI-P5x (serous) | 2 | 79.8 (active) |
| CRADD (GeneID 8738) | Rucaparib | OCI-P5x (serous) | 3 | 82.8 |
| CRADD (GeneID 8738) | Vehicle | OCI-C5x (clear cell) | 1 | 85 |
| CRADD (GeneID 8738) | Vehicle | OCI-C5x (clear cell) | 2 | 73.7 (active) |
| CRADD (GeneID 8738) | Vehicle | OCI-C5x (clear cell) | 3 | 82.4 |
| CRADD (GeneID 8738) | Vehicle | OCI-P5x (serous) | 1 | 77.7 (active) |
| CRADD (GeneID 8738) | Vehicle | OCI-P5x (serous) | 2 | 76.3 (active) |
| CRADD (GeneID 8738) | Vehicle | OCI-P5x (serous) | 3 | 71.7 (active) |
| GTF2H4 (GeneID 2968) | Rucaparib | OCI-C5x (clear cell) | 1 | 64.6 (active) |
| GTF2H4 (GeneID 2968) | Rucaparib | OCI-C5x (clear cell) | 1 | 45.6 (active) |
| GTF2H4 (GeneID 2968) | Rucaparib | OCI-C5x (clear cell) | 2 | 50.9 (active) |
| GTF2H4 (GeneID 2968) | Rucaparib | OCI-C5x (clear cell) | 2 | 51.8 (active) |
| GTF2H4 (GeneID 2968) | Rucaparib | OCI-C5x (clear cell) | 3 | 37.3 (active) |
| GTF2H4 (GeneID 2968) | Rucaparib | OCI-C5x (clear cell) | 3 | 56.5 (active) |
| GTF2H4 (GeneID 2968) | Rucaparib | OCI-P5x (serous) | 1 | 55.4 (active) |
| GTF2H4 (GeneID 2968) | Rucaparib | OCI-P5x (serous) | 1 | 59.2 (active) |
| GTF2H4 (GeneID 2968) | Rucaparib | OCI-P5x (serous) | 2 | 81.4 |
| GTF2H4 (GeneID 2968) | Rucaparib | OCI-P5x (serous) | 2 | 53.2 (active) |
| GTF2H4 (GeneID 2968) | Rucaparib | OCI-P5x (serous) | 3 | 67 (active) |
| GTF2H4 (GeneID 2968) | Rucaparib | OCI-P5x (serous) | 3 | 53.7 (active) |
| GTF2H4 (GeneID 2968) | Vehicle | OCI-C5x (clear cell) | 1 | 46 (active) |
| GTF2H4 (GeneID 2968) | Vehicle | OCI-C5x (clear cell) | 1 | 52.6 (active) |
| GTF2H4 (GeneID 2968) | Vehicle | OCI-C5x (clear cell) | 2 | 46.1 (active) |
| GTF2H4 (GeneID 2968) | Vehicle | OCI-C5x (clear cell) | 2 | 42.4 (active) |
| GTF2H4 (GeneID 2968) | Vehicle | OCI-C5x (clear cell) | 3 | 23.8 (active) |
| GTF2H4 (GeneID 2968) | Vehicle | OCI-C5x (clear cell) | 3 | 43.4 (active) |
| GTF2H4 (GeneID 2968) | Vehicle | OCI-P5x (serous) | 1 | 51.8 (active) |
| GTF2H4 (GeneID 2968) | Vehicle | OCI-P5x (serous) | 1 | 52.5 (active) |
| GTF2H4 (GeneID 2968) | Vehicle | OCI-P5x (serous) | 2 | 48.3 (active) |
| GTF2H4 (GeneID 2968) | Vehicle | OCI-P5x (serous) | 2 | 62.5 (active) |
| GTF2H4 (GeneID 2968) | Vehicle | OCI-P5x (serous) | 3 | 52 (active) |
| GTF2H4 (GeneID 2968) | Vehicle | OCI-P5x (serous) | 3 | 52.5 (active) |
